Assay results published in the supplement of paper PMC10849652.
The other results are listed elsewhere or left out.

Chains of the proteins cited; added tags and fusions are not shown. Lines headed by an entry give the natural chain unless they say otherwise; changes in a name come on top.
UniProt Q9UJX6, whole entry, looked up: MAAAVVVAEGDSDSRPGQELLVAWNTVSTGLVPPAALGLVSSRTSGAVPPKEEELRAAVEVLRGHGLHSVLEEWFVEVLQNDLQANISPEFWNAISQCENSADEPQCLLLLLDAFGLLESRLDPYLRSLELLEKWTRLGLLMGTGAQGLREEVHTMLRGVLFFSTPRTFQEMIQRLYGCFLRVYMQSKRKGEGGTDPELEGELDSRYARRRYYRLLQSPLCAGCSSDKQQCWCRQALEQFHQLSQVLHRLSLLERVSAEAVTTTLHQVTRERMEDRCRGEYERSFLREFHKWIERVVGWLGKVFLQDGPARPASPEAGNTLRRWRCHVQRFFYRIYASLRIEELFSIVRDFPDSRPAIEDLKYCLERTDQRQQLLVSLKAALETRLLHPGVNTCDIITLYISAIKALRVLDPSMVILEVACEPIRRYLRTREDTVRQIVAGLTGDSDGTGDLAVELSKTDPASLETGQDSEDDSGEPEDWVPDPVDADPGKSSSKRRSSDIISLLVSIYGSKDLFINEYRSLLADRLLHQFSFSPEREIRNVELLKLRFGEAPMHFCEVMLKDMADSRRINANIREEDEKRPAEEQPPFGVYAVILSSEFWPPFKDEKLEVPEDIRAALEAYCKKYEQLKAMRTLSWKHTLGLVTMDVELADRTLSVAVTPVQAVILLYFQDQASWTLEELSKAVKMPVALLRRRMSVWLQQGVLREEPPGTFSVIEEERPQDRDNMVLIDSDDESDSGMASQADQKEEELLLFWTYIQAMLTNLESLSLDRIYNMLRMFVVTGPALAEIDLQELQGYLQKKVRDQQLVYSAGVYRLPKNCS
UniProt Q9BXX2: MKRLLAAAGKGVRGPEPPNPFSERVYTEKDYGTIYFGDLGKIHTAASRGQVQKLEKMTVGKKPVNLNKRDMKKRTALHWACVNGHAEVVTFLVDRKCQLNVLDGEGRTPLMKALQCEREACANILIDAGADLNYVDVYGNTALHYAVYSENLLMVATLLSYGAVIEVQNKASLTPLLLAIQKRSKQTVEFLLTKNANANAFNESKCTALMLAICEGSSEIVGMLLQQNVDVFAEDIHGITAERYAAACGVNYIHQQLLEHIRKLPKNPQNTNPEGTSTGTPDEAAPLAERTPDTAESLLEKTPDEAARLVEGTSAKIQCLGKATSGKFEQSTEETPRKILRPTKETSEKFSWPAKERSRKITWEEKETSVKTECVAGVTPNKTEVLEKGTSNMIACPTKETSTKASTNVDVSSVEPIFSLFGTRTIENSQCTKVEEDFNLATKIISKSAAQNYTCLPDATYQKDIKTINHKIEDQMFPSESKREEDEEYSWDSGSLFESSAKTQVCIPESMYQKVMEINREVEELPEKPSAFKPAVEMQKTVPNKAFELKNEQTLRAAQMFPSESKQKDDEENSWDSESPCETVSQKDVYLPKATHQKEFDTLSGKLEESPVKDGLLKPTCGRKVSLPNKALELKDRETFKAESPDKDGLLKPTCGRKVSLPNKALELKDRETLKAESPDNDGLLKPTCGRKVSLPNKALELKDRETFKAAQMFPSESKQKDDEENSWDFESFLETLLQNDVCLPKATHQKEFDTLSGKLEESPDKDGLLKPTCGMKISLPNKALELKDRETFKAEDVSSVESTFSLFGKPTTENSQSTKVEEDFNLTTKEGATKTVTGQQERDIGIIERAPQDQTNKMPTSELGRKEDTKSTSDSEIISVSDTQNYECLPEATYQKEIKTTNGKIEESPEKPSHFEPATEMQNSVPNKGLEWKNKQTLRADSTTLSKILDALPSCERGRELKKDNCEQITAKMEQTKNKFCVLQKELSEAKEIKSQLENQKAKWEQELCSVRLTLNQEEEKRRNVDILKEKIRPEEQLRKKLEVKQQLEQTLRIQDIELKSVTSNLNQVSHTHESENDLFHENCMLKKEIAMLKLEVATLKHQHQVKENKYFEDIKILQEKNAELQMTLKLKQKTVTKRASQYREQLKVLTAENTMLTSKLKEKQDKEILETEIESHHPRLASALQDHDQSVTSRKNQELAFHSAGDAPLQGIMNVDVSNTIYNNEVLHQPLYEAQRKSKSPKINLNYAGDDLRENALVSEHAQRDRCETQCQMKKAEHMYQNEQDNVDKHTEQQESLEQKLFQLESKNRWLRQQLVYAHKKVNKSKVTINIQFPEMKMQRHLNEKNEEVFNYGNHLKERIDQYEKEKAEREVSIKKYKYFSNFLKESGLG
UniProt Q9H1A4, whole entry, looked up: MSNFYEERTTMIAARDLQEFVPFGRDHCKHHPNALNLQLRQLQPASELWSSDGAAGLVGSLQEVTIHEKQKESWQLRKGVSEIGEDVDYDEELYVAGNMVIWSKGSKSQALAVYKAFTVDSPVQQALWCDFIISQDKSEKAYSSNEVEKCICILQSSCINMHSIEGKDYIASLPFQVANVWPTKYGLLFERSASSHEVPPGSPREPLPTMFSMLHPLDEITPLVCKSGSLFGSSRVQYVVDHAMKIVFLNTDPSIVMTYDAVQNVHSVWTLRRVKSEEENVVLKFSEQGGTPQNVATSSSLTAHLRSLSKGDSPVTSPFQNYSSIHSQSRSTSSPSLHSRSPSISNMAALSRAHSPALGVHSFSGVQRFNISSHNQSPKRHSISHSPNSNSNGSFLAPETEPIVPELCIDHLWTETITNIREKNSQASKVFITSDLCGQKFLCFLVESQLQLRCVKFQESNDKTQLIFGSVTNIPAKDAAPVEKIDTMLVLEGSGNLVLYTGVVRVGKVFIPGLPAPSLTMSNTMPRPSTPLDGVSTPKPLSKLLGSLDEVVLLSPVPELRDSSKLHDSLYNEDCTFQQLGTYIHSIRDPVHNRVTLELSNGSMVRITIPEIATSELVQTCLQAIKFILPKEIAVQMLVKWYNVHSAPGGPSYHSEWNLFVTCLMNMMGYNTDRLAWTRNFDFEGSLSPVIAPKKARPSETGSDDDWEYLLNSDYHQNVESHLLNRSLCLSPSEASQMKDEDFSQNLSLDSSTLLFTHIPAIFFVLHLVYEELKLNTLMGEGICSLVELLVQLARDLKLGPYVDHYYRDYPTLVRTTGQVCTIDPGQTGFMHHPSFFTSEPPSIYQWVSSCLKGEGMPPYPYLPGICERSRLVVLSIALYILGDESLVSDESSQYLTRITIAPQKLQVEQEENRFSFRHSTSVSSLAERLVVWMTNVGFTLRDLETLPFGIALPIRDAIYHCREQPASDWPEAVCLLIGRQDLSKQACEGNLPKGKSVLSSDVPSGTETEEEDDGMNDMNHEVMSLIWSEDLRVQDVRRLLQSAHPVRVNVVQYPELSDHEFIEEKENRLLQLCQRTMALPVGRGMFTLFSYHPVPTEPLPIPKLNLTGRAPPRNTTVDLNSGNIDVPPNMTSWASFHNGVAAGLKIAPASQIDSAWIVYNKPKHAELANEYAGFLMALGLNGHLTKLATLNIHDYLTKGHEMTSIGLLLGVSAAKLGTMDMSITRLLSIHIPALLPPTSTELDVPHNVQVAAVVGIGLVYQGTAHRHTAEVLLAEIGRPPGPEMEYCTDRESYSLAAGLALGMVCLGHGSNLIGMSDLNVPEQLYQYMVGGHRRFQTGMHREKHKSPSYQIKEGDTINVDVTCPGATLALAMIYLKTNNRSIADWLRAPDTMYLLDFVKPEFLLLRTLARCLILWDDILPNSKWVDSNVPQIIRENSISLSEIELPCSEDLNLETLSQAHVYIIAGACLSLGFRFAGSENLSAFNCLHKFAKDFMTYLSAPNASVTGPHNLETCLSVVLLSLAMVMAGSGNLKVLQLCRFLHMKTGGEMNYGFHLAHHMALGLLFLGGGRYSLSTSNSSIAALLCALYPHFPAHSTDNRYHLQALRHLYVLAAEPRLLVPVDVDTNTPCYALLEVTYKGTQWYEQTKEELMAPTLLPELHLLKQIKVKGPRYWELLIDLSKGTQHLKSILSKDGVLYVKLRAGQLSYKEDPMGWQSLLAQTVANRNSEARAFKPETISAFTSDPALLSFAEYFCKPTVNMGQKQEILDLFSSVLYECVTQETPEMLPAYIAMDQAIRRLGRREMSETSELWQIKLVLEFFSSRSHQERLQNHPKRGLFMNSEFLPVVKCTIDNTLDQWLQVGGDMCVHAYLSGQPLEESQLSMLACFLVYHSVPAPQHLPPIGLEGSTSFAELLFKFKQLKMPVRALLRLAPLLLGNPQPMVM
UniProt Q9HCJ1: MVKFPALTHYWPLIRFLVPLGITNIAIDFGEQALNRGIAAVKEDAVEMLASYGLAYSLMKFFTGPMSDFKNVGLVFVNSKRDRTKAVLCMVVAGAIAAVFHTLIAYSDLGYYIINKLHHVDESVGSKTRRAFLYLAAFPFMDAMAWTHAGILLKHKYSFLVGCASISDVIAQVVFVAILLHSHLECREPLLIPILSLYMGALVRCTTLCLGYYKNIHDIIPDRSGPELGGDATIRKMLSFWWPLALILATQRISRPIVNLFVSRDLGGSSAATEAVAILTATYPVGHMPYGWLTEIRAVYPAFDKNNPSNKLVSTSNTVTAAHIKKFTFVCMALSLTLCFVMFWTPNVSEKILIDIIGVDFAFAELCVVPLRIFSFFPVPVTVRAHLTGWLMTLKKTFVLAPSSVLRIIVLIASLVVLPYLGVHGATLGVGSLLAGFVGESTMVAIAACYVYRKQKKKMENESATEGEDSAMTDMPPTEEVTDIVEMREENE
UniProt Q92685: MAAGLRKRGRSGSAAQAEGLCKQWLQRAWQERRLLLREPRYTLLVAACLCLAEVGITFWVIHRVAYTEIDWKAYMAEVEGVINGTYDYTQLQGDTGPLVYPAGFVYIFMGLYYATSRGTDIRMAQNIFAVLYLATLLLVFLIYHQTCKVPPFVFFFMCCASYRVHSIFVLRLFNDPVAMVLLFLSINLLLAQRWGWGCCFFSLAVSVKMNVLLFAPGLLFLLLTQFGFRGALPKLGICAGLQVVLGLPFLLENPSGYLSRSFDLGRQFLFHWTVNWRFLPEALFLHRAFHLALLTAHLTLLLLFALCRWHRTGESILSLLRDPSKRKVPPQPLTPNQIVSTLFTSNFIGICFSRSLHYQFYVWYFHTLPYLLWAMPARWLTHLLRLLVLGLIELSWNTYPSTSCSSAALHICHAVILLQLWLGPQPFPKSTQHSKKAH
UniProt Q9BV10: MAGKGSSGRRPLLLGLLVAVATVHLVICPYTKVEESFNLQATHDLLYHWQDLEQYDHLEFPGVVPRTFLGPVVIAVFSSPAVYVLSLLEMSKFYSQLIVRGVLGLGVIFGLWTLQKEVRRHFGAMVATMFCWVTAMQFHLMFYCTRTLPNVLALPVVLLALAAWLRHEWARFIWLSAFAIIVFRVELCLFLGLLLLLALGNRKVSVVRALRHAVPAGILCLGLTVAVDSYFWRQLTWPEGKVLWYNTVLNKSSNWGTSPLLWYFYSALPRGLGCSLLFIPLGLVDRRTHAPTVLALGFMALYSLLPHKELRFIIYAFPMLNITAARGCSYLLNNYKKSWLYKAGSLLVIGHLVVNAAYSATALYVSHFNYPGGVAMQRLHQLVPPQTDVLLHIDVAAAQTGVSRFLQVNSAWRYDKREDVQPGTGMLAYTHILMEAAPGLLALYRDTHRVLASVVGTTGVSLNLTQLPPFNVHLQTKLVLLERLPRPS
UniProt P56377: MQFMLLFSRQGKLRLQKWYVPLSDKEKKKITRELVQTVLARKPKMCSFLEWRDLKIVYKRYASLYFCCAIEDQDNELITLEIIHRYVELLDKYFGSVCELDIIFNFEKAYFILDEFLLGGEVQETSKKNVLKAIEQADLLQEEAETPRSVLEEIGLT
UniProt P49189: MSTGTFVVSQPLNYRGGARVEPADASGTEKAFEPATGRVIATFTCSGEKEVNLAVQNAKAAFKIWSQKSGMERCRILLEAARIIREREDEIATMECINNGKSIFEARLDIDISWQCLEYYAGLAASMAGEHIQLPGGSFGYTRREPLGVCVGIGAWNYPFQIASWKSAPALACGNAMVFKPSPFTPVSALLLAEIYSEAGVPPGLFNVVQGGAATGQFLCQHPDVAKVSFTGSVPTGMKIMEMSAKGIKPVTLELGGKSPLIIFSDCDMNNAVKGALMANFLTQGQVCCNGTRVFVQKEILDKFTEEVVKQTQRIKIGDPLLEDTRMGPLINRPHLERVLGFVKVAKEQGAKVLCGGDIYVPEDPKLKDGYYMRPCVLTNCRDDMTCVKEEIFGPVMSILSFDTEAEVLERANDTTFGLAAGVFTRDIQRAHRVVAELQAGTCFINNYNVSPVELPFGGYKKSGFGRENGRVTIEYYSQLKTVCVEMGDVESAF

Experiments:
Experiment in all cases: log2 fold change, soluble protein after heating vs DMSO (PISA); higher = thermal stabilisation; K562 lysate, 10 uM; active = over 0.2 and 3.5 SD of the protein, either way, in both replicates (recomputed)
[1] = compound: C=CC(=O)N1CCC[C@@H](n2nc(-c3ccc(Oc4ccccc4)cc3)c3c(N)ncnc32)C1 [ibrutinib]
Procedure, shortened: (§1)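 Log-two fold change in thermal stability relative to solvent controls is reported from duplicates. For each sample, crude K562 extract from dounce-homogenised pellets in PBS pH 7.4 with 1 mM MgCl2, at 1 mg/mL protein, was treated with 10 μM compound for 30 min. Aliquots heated for 3 min across 48°C-58°C were pooled, brought to 0.5% NP-40 at 4°C and cleared at 21,000xg for 90 min. The supernatant was quantified by TMTpro 16plex LC-MS/MS with channel sums equalised.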

[2] = compound: CC(=O)c1cnc2ccc(-c3cc(Cl)c(O)c(Cl)c3)nc2c1N[C@H]1CC[C@H](CN(C)C)CC1
Procedure, shortened: as §1

[3] = compound: CC(C)(C)Cn1c(N)nc2ccc(-c3[nH]c(C(C)(C)C)nc3-c3ccc(F)cc3)nc21 [ralimetinib]
Procedure, shortened: as §1

[4] = compound: CC(C)(O)CC(=O)NCCn1ccc2ncnc(Nc3ccc(Oc4cccc(C(F)(F)F)c4)c(Cl)c3)c21
Procedure, shortened: as §1

[5] = compound: CC(C)C1=C2N=C(C=C(N2N=C1)NCC3=CC=CC=C3)NCCCCCCN
Procedure, shortened: as §1

[6] = compound: CC1=C(C(CC(=O)N1)C2=CC=C(C=C2)C(F)(F)F)C(=O)NC3=C(C=C4C(=C3)C=NN4)F
Procedure, shortened: as §1

[7] = compound: CC1=C(C2=C(C=C1)C(=O)C3=CC=CC=C3N2CCCN)C
Procedure, shortened: as §1

[8] = compound: CC1=C(C=C(C=C1)NC(=O)C2=CC(=CC=C2)C(C)(C)C#N)NC3=CC4=C(C=C3)N=CN(C4=O)C
Procedure, shortened: as §1

[9] = compound: CC1=C(C=C(C=C1)NC(=O)C2=CC(=CC=C2)N(C)C)NC(=O)C3=CC=C(C=C3)O
Procedure, shortened: as §1

[10] = compound: CC1=CC=C(C=C1)SC2=C3C=C(SC3=CN=C2)C(=O)N
Procedure, shortened: as §1

Measured: log2 fold change

ANAPC2 (UniProt Q9UJX6)
inactive: [1] 0.043 | [2] 0.008 | [3] 0.022 | [4] -0.003 | [5] -0.008 | [6] -0.011 | [7] -0.025 | [8] 0.004 | [9] -0.01 | [10] 0.002

AKT1S1 isoform 3 (UniProt Q96B36)
inactive: [1] 0.045 | [2] 0.004 | [3] -0.008 | [4] -0.037 | [5] 0.013 | [6] -0.028 | [7] -0.007 | [8] 0.02 | [9] -0.023 | [10] -0.008

ANXA11 (UniProt P50995)
inactive: [1] -0.005 | [2] -0.027 | [3] -0.002 | [4] 0.057 | [5] 0.034 | [6] -0.031 | [7] 0.023 | [8] -0.041 | [9] 0.01 | [10] 0

ANKRD30B (UniProt Q9BXX2)
inactive: [1] -0.063 | [2] -0.086 | [3] -0.007 | [4] -0.16 | [5] 0.038 | [6] -0.098 | [7] -0.064 | [9] 0.024 | [10] -0.167

ALMS1 (UniProt Q8TCU4)
inactive: [1] 0.046 | [2] -0.206 | [3] 0.007 | [4] -0.021 | [5] 0.028 | [6] -0.108 | [7] -0.073 | [8] 0.181 | [9] 0.011 | [10] 0.076

ANAPC1 (UniProt Q9H1A4)
inactive: [1] 0.024 | [2] -0.005 | [3] 0 | [4] -0.008 | [5] 0.013 | [6] 0.009 | [7] -0.008 | [8] -0.002 | [9] 0.01 | [10] -0.003

ALG6 (UniProt Q9Y672)
inactive: [1] -0.023 | [2] 0.019 | [3] 0.105 | [4] -0.302 | [5] 0.031 | [6] 0.019 | [7] 0 | [8] 0.122 | [9] -0.038 | [10] 0

AP2A1 (UniProt O95782)
inactive: [1] 0 | [2] 0.022 | [3] -0.005 | [4] 0 | [5] -0.009 | [6] -0.007 | [7] 0 | [8] 0.039 | [9] -0.015 | [10] -0.003

ANKH (UniProt Q9HCJ1)
inactive: [2] 0.008 | [3] -0.08 | [4] -0.089 | [5] -0.117 | [6] 0.052 | [8] 0.005 | [9] 0.011 | [10] -0.075

ANGPTL4 (UniProt M0R3A2)
inactive: [1] 0.057 | [2] -0.011 | [3] -0.076 | [4] -0.082 | [5] 0.077 | [9] 0.077 | [10] -0.113

ANKS3 (UniProt Q6ZW76)
inactive: [1] -0.167 | [2] -0.01 | [7] 0.065 | [8] 0.102 | [10] -0.053

AKTIP isoform 2 (UniProt Q9H8T0)
inactive: [2] 0.176 | [3] 0.182 | [4] -0.161 | [5] 0.161 | [7] 0.108 | [9] -0.287 | [10] 0.029

AMOTL1 (UniProt Q8IY63)
inactive: [1] -0.057 | [3] -0.001 | [4] -0.043 | [5] -0.026 | [6] 0.017 | [7] -0.014 | [8] -0.005 | [9] -0.008

Quoted from above (2 entries):
ANXA11 (UniProt P50995)
inactive: [1] -0.005 | [2] -0.027 | [3] -0.002 | [4] 0.057 | [5] 0.034 | [6] -0.031 | [7] 0.023 | [8] -0.041 | [9] 0.01 | [10] 0

ANKRD30B (UniProt Q9BXX2)
inactive: [1] -0.063 | [2] -0.086 | [3] -0.007 | [4] -0.16 | [5] 0.038 | [6] -0.098 | [7] -0.064 | [9] 0.024 | [10] -0.167

(cont.)

ALG3 (UniProt Q92685)
inactive: [1] -0.163 | [2] 0.03 | [3] -0.007 | [4] -0.032 | [5] -0.278 | [7] 0.014 | [8] -0.024 | [9] 0.042 | [10] 0.03

ALG12 (UniProt Q9BV10)
inactive: [1] 0.118 | [2] -0.003 | [3] 0.048 | [4] -0.01 | [5] -0.113 | [7] -0.058 | [9] 0.028 | [10] -0.027

AP4M1 (UniProt O00189)
inactive: [1] 0.047 | [3] -0.01 | [4] 0.033 | [5] 0.048 | [6] -0.042 | [7] -0.042 | [8] 0.036 | [9] -0.022

ANKRD16 (UniProt Q6P6B7)
inactive: [1] 0.161 | [2] -0.016 | [6] 0.064 | [7] -0.084 | [8] -0.023 | [10] -0.127

ANKRD30A (UniProt Q9BXX3)
inactive: [1] -0.01 | [2] 0.77 | [3] 0.014 | [4] 0.088 | [6] 0.007 | [7] 0.038 | [8] -0.088 | [9] 0.077 | [10] -0.177

ANK2 (UniProt Q01484)
inactive: [1] -0.158 | [3] -0.025 | [4] -0.181 | [6] -0.051 | [7] -0.044 | [8] -0.048 | [9] -0.031

ALDOA (UniProt H3BPS8)
inactive: [1] 0.116 | [2] 0.066 | [5] -0.108 | [6] -0.082 | [10] 0

ANKHD1 (UniProt D6RHC4)
inactive: [2] 0.05 | [3] 0.029 | [4] -0.116 | [5] 0.135 | [7] -0.234 | [9] -0.002 | [10] 0.058

ANKHD1 isoform 2 (UniProt Q8IWZ3)
inactive: [1] 0.017 | [3] 0.023 | [4] 0.081 | [5] -0.124 | [6] 0.067 | [7] 0 | [8] -0.046 | [9] 0.038

AP1S2 (UniProt P56377)
inactive: [1] 0.018 | [2] -0.006 | [3] -0.039 | [4] -0.086 | [5] 0.092 | [6] 0.105 | [8] 0.04 | [9] 0.056 | [10] 0.048

ALDH9A1 (UniProt P49189)
inactive: [1] -0.093 | [3] 0.046 | [4] -0.006 | [7] 0.052 | [8] -0.039 | [9] -0.003
